The supplement of paper PMC10338343
± gives the standard deviation. The entries are a selection whose mix differs from that of the whole data set. The uncertainty is large for many entries.

Test system: MILI (PIWIL2) piRISC loaded with piRNA #1 (26 nt)
Experiment: pre-steady-state target cleavage rate (min^-1); MIWI and MILI are mouse PIWI proteins and EfPiwi is from a freshwater sponge; tags in brackets are library labels; higher = faster piRNA-guided slicing of the target
Settings: guide: piRNA #1 5'p-UGAGGUAGUAGGUUGUAUAGUAUCCA; auxiliary factor: 500 nM mouse GTSF1
In short: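 Sequencing of uncleaved targets, normalised to depth and to weakly complementary targets, was the readout of this Cleave-'n-Seq assay. A transcribed, DNA-blocked target RNA library (0.1 nM) was mixed with 1 nM active affinity-purified piRISC carrying one synthetic guide, with or without 500 nM GTSF1 partner protein, in HEPES–potassium acetate buffer at 33 °C for 0–8 or 0–960 min. Three trials were pooled, k3 was capped at 0.0001 min^-1, and a burst-and-steady-state fit gave the pre-steady-state cleavage rate.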

Sequence | pre-steady-state target cleavage rate
GGAGACCUAUGAUAUCAAGCUACUUCCUCA | 0.00275 ± 0.0035
GGAGAGGAUACUAUACAACCUAGAACCUCA | 0.00128 ± 0.0057
GGAGACGUUACUAUACAUCCUACUACCUCA | 0.293 ± 0.018
GGAGACCUAUCUAUACAACCUCACUACCUCA | 0.00327 ± 0.0041
GGAGAGGAUACUAUACAACUCUACUACCUCA | 0.00124 ± 0.0047
GGAGAGGAUACUAUACUAGCUACUACCUCA | 0.113 ± 0.011
GGAGACCUAUGAUAUGUUCCUAGUACGUCA | 0.000197 ± 0.017
GGAGACGAUACUAUACAACCUACUACCCUCA | 0.176 ± 0.021
GGAGACCAUACUAUACAACCAACUACCUGA | 0.00261 ± 0.0037
GGAGACCUAUGAUAUGAACCCACUACCUCA | 0.000255 ± 0.014
GGAGACCUAACUAUAGAACCUUCUACCUCA | 0.00166 ± 0.0054
GGAGACCAUACUAUACAACCUACUACCUA | 0.125 ± 0.016
GGAGACCUUACAAAACAACCUACUACCUCA | 0.00897 ± 0.0036
GGAGAGGAUACUAUACAAGCUACUACCACA | 0.243 ± 0.019
GGAGUGGAUAGUAUACUACCUACUACCUCA | 0.113 ± 0.0097
GGAGACCUAUGAUAACAACGAACUACCUCA | 0.000256 ± 0.01
GGAGACCUAUGAUAUGUUCCUAACUACCUCA | 0.000101 ± 0.025
GGAGACCAUACAUUACAACCUACUACCUCA | 0.0869 ± 0.014
GGAGACGAUACUAUAAAACCUACUACCUCA | 0.184 ± 0.013
GGAGAGGAUACUAUACAACCUACAACCUGA | 0.00144 ± 0.0038

As a short view, some entries already given.
Sequence | pre-steady-state target cleavage rate
GGAGACGUUACUAUACAUCCUACUACCUCA | 0.293 ± 0.018
GGAGACCUAUCUAUACAACCUCACUACCUCA | 0.00327 ± 0.0041
GGAGAGGAUACUAUACAACUCUACUACCUCA | 0.00124 ± 0.0047

Next part.

Sequence | pre-steady-state target cleavage rate
GGAGACCUAUGAUAACAGACCUACUACCUCA | 0.00064 ± 0.0097
GGAGACCUAUGAUAUGAAGCUACUACCACA | 0.00019 ± 0.013
GGAGAGGAUACCAUACAACCUACUACCUCA | 0.167 ± 0.021
GGAGACGAUACUAUACAACGUACUACGUCA | 0.00557 ± 0.0029
GGAGACCUAUGAUAUGUUCCUACUAGCUCA | < 0.0001
GGAGUGGAUACUAUACAUCCUACUACCUCA | 0.267 ± 0.014
GGAGACCAUACAAUACUACCUACUACCUCA | 0.158 ± 0.019
GGAGACCUAUGAAUACUACCUAGUACCUCA | 0.00059 ± 0.0097
GGAGAGGAUACUAUACAACCUACUACCAGA | 0.0384 ± 0.0076
GGAGACCUAUGAUUACAAGGAACUACCUCA | 0.000142 ± 0.019
GGAGAGGAAACUAUACUACCUACUACCUCA | 0.239 ± 0.025
GGAGACCUAUCUAUAGAACCAACUACCUCA | 0.000752 ± 0.0041
GGAGACCAUUCUAUACAUCCUACUACCUCA | 0.235 ± 0.019
GGAGUGGAUACGAUACAACCUACUACCUCA | 0.176 ± 0.011
GGAGACCUAUGAUAACAACUCUACUACCUCA | 0.000133 ± 0.022
GGAGUGGUUACUAAACAACCUACUACCUCA | 0.161 ± 0.0092
GGAGACCAUACUACUACAACCUACUACCUCA | 0.137 ± 0.015
GGAGACCUAUGAUAUGUACCUACCACCUCA | 0.000185 ± 0.019
GGAGACCUUACUAUUCAACCUACUACCUCA | 0.15 ± 0.012
GGAGACCUAUGAUAUGUUCGUACAACCUCA | 0.000137 ± 0.02
